Laboratory results as given in patent US20220003784A1 (ASSISTANCE PUBLIQUE H PITAUX DE MARSEILLE, published 2022).
Results are given in words; binding and its absence hold for the method and conditions named. Binding seen in cells or lysates may run through a third protein. Some entries that bind do so weakly or less than the wild type.

Amino acid sequences for entries named in this document (tags omitted). Residues count along the entry.
UniProt P78536, residues 215-824: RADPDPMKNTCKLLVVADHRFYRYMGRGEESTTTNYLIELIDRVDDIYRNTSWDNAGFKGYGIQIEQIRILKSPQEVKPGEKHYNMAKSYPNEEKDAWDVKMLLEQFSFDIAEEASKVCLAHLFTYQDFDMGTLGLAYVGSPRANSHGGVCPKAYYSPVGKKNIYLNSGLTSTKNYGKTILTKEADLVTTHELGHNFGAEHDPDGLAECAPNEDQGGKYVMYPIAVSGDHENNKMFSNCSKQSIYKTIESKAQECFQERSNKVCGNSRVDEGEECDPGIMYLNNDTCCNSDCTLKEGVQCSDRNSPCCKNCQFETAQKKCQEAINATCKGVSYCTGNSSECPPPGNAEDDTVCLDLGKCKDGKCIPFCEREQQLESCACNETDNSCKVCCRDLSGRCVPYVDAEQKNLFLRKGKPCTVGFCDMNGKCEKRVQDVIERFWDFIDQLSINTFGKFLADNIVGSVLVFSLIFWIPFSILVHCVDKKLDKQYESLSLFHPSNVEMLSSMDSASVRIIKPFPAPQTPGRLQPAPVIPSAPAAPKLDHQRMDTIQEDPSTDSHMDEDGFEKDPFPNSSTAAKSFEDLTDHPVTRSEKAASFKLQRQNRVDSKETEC

T1: Human short CD146 protein (human) (UniProt P43121)
T1 sequence: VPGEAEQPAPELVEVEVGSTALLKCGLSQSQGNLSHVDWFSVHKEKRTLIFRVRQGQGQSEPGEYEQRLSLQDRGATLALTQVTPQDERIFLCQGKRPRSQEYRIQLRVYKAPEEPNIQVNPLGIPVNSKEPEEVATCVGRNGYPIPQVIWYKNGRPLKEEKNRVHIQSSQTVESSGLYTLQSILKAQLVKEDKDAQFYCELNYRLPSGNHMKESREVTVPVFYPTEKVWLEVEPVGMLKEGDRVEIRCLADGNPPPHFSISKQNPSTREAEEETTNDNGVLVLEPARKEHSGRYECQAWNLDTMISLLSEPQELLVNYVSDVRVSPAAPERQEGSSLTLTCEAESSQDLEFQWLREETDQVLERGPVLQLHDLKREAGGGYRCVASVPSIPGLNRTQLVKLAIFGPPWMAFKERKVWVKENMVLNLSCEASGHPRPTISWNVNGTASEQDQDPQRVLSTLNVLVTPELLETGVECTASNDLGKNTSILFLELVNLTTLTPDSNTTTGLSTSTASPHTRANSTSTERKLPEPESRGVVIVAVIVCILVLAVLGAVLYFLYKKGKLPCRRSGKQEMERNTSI

T2: Human long CD146 protein (human) (UniProt P43121)
T2 sequence: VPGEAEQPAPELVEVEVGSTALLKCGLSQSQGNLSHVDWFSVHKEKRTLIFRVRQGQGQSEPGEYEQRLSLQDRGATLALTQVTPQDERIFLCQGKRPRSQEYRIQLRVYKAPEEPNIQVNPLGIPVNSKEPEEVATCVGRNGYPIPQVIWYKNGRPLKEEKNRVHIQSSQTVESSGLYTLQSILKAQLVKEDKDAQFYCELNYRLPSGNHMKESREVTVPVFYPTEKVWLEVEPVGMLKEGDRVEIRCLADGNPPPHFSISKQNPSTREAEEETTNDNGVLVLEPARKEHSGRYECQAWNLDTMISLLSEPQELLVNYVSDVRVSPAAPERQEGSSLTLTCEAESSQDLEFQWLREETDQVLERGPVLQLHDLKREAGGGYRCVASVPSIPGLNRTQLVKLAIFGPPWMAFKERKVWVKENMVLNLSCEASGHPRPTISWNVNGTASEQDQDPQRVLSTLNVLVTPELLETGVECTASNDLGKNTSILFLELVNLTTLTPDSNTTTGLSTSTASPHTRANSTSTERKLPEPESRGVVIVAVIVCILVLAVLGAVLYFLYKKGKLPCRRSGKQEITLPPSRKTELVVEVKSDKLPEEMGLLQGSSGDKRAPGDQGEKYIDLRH


Experiments:
[1] = molecular target: T1, Human short CD146 protein (human); assay: co-immunoprecipitation from ECFC treated with TNF
[2] = molecular target: T2, Human long CD146 protein (human); assay: co-immunoprecipitation from ECFC treated with TNF
[3] = molecular target: T2, Human long CD146 protein (human); assay: co-immunoprecipitation from ECFC in control condition (ADAM10 immunoprecipitated, western blot for CD146 isoforms)

binding [1]	binding [2]	binding [3]	Molecule
binds	–	–	Tace (from UniProt P78536 215-824) (enzyme)
–	binds	binds	ADAM10 (protein) TTSAEKNTCQLYIQTDHLFFKYYGTREAVIAQISSHVKAIDTIYQTTDFSGIRNISFMVKRIRINTTADEKDPTNPFRFPNIGVEKFLELNSEQNHDDYCLAYVFTDRDFDDGVLGLAWVGAPSGSSGGICEKSKLYSDGKKKSLNTGIITVQNYGSHVPPKVSHITFAHEVGHNFGSPHDSGTECTPGESKNLGQKENGNYIMYARATSGDKLNNNKFSLCSIRNISQVLEKKRNNCFVESGQPICGNGMVEQGEECDCGYSDQCKDECCFDANQPEGRKCKLKPGKQCSPSQGPCCTAQCAFKSKSEKCRDDSDCAREGICNGFTALCPASDPKPNFTDCNRHTQVCINGQCAGSICEKYGLEECTCASSDGKDDKELCHVCCMKKMDPSTCASTGSVQWSRHFSGRTITLQPGSPCNDFRGYCDVFMRCRLVDADGPLARLKKAIFSPELYENIAEWIVAHWWAVLLMGIALIMLMAGFIKICSVHTPSSNPKLPPPKPLPGTLKRRRPPQPIQQPQRQRPRESYQMGHMRR
